Among the data in doi:10.1101/2022.10.09.511391 are binding values, retold here.

The target of this assay is HA-tagged LRR domain of LRRFIP2. The assay is described as follows: co-IP.

Results are given in words; binding and its absence hold for the method and conditions named. Binding seen in cells or lysates may run through a third protein. Tags and fused reporters may be left off the sequences shown.

B1: Flag-TRB3 (protein, UniProt Q8K4K2 1-354)
chain: MRATPLAASADVSCRKKPLEFDDNIDAKCPVLKRVRDEPEPGPLPSLLPPSPPPASDLSPAVAPATRLGPYILLEREQGSCSYRALHCPTGTEYTCKVYPASEAQAVLAPYARLPTHQHVARPTEVLLGSRLLYIFFTKTHGDLHSLVRSRRGIPESEAAGLFRQMASAVAHCHKHGLVLRDLKLRRFVFSNCERTKLVLENLEDACVMTGSDDSLWDKHACPAYVGPEILSSRPSYSGKAADVWSLGVALFTMLAGRYPFHDSEPVLLFGKIRRGTFALPEGLSAPARCLIRCLLRKEPSERLVALGILLHPWLREDHGRVSPPQSDRREMDQVVPDGPQLEEAEEGEVGLYG
Consider B1, for which the binding result was “no binding”.
